Experimental data: the supplement of paper PMC10849652
The other results are listed elsewhere or left out.

The chains behind the UniProt entries cited, without tags or fusion partners. Where a name states a change or a piece, a line headed by the entry shows the natural chain unless it says otherwise.
UniProt Q8NBR6: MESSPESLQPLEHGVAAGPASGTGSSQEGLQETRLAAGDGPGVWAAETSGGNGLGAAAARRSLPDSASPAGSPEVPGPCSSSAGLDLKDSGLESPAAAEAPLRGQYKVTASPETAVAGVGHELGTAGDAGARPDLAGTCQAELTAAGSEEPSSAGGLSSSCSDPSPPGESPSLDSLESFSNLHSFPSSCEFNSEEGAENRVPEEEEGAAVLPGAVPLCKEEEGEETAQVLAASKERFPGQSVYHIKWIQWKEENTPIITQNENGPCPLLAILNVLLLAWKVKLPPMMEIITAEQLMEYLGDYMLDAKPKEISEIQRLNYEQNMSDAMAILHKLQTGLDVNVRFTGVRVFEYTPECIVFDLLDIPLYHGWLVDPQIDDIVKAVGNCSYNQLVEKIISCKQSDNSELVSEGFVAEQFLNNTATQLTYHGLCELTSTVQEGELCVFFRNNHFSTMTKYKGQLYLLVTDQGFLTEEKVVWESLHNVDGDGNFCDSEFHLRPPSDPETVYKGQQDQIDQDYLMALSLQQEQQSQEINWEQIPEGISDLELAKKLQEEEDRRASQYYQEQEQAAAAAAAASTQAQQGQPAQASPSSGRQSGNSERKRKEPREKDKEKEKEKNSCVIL
UniProt Q86TA1: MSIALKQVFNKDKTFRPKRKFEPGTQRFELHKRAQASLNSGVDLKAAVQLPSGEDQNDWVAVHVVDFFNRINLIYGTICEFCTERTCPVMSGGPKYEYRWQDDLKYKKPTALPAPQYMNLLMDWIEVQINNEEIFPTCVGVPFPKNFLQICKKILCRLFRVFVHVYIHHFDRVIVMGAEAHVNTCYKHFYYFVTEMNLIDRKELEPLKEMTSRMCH
UniProt O95396: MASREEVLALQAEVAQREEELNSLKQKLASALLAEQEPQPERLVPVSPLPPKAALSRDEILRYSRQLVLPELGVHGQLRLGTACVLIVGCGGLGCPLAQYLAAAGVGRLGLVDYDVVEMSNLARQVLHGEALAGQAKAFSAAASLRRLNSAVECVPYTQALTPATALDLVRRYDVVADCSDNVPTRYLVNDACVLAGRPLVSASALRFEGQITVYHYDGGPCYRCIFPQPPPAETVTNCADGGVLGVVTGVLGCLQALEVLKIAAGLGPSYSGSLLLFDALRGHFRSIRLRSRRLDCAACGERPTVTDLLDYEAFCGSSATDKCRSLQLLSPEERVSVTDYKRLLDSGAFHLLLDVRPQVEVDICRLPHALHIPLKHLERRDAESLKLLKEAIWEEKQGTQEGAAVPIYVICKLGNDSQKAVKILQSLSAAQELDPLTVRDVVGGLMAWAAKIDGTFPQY
UniProt Q9HAP2: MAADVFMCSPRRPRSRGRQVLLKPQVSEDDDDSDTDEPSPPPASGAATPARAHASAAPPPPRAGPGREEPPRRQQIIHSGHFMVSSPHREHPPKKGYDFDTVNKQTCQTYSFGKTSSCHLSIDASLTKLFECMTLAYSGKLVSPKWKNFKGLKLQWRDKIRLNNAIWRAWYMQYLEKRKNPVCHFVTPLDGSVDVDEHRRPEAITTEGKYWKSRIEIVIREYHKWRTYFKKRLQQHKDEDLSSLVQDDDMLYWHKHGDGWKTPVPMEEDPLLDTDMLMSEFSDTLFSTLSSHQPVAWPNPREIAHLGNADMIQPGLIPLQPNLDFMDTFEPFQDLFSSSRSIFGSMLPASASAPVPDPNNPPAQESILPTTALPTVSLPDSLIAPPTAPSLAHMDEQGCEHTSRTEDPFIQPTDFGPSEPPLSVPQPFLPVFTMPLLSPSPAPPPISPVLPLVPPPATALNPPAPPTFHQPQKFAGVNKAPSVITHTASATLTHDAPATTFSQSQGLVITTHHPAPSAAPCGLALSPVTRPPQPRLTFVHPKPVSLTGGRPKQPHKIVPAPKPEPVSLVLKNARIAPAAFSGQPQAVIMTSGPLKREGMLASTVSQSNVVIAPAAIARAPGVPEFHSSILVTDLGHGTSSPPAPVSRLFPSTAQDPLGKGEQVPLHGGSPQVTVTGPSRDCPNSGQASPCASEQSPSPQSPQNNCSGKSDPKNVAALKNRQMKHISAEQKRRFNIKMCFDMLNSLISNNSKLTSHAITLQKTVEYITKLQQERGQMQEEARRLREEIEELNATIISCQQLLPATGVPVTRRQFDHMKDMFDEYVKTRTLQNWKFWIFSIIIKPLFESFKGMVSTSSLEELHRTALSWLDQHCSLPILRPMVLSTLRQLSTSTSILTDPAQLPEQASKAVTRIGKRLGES
UniProt Q9Y6X9: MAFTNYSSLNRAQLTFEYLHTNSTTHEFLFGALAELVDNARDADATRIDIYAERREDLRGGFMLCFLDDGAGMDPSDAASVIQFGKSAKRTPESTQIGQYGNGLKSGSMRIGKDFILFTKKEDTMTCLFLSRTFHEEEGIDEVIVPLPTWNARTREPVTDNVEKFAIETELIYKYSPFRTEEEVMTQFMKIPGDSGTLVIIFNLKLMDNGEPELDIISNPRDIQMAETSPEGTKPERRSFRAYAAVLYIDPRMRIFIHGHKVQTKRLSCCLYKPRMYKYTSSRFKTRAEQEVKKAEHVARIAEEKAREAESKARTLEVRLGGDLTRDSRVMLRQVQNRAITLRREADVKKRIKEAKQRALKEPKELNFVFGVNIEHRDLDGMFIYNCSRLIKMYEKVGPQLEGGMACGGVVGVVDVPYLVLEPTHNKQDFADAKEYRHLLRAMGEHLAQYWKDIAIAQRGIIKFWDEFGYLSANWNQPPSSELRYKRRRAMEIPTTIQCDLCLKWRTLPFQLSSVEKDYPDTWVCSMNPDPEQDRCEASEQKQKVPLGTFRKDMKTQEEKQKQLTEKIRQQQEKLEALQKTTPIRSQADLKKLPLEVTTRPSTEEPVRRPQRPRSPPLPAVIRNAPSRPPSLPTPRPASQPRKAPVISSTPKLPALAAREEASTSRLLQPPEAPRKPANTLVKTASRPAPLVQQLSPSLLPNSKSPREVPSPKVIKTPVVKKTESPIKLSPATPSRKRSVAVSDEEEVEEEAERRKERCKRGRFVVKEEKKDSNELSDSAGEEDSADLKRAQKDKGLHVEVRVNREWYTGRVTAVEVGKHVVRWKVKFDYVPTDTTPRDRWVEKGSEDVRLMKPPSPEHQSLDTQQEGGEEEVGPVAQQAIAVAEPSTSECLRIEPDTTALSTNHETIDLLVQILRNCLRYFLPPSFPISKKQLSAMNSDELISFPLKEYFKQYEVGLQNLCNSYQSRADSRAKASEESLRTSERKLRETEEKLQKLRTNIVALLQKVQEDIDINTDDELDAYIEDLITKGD
UniProt Q7L4E1: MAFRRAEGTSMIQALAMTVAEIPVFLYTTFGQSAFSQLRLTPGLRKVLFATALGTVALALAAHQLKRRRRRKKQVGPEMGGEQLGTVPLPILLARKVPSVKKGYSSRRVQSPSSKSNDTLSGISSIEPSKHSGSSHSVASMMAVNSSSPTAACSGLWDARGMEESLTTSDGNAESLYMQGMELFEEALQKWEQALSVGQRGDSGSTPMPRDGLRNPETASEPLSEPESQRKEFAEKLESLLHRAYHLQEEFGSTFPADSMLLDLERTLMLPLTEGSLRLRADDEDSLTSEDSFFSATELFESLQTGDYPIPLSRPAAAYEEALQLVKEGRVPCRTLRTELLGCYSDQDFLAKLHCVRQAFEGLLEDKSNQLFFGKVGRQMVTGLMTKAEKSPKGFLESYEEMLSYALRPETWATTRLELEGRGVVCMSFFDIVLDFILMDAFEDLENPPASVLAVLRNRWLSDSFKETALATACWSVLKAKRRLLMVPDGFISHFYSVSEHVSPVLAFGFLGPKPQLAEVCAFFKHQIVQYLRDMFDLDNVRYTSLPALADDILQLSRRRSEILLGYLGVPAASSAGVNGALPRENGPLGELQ
UniProt Q95460, whole entry, looked up: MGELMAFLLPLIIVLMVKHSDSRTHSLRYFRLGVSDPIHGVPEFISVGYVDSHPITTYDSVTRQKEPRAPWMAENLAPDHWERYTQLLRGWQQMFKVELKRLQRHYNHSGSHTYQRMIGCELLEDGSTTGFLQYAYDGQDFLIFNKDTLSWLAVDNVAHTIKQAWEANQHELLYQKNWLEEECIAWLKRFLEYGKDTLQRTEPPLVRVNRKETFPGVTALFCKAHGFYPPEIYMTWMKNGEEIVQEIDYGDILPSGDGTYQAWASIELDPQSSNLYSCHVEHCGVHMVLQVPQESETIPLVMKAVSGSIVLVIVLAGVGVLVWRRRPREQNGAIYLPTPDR
UniProt Q8N344: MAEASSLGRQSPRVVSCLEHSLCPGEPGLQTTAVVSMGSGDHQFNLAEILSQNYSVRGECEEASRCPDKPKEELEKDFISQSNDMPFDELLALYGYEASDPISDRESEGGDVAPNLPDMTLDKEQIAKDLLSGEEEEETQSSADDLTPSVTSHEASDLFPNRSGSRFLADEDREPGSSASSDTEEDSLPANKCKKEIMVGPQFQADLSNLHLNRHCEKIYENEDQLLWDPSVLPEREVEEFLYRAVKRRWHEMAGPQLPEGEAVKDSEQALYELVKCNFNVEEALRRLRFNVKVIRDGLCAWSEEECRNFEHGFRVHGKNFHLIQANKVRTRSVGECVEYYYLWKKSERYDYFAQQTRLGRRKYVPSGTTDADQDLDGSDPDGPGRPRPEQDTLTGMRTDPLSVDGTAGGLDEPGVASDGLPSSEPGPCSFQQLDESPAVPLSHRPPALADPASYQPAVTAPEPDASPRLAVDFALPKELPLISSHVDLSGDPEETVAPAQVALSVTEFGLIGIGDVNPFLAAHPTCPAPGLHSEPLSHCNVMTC
UniProt Q96BX8: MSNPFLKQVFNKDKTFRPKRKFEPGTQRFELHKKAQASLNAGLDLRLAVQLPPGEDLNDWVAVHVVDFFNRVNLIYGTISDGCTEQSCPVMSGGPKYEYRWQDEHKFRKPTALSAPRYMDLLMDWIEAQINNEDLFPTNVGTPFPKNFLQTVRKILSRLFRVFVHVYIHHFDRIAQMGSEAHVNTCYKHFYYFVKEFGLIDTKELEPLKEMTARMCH
UniProt Q9Y605: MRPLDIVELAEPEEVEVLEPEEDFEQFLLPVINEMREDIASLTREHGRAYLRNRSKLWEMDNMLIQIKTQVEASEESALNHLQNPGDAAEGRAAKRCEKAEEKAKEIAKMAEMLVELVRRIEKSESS
UniProt Q8IVH4: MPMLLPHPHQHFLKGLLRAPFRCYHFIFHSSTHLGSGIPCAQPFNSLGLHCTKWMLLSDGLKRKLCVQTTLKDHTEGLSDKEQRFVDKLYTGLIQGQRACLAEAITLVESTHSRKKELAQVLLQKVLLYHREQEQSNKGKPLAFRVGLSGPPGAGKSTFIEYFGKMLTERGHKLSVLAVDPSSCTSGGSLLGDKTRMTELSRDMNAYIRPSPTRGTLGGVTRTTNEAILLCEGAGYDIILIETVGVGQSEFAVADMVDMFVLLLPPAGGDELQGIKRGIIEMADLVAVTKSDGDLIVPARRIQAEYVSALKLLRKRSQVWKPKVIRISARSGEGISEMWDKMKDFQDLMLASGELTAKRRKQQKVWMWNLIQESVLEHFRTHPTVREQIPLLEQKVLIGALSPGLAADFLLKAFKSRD
UniProt O96033: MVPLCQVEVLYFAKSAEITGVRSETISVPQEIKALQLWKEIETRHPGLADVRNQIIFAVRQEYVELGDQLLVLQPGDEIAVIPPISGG
UniProt Q70IA6: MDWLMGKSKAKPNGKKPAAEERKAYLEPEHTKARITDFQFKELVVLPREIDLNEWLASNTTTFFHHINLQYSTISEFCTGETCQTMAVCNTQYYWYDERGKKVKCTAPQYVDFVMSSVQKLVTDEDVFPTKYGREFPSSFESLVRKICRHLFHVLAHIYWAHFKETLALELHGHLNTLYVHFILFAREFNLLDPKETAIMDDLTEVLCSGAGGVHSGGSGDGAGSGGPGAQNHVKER
UniProt Q4G0A6: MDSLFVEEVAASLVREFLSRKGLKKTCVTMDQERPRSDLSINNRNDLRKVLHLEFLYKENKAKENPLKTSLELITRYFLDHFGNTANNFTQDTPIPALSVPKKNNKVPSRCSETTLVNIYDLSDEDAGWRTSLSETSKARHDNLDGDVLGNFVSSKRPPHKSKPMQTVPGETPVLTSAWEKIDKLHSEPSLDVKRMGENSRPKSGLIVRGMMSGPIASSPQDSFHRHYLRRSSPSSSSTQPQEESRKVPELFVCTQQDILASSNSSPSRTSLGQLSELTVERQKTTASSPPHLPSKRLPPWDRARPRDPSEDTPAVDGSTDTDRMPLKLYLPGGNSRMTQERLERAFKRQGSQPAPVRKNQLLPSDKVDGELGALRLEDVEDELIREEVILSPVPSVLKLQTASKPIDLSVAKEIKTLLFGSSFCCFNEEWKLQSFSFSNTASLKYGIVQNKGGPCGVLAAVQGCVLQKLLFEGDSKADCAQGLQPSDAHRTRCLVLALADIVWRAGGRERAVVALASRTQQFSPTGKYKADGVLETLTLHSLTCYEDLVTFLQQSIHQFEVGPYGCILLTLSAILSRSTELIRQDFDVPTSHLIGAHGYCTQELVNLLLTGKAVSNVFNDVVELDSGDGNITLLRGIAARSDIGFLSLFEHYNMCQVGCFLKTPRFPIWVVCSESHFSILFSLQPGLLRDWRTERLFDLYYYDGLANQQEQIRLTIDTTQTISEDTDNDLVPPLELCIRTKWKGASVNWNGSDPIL

Assays:
Assay in all cases: log2 fold change, soluble protein after heating vs DMSO (PISA); higher = thermal stabilisation; K562 cells, 10 uM, 30 min; active = over 0.2 and 3.5 SD of the protein, either way, in both replicates (recomputed)
volasertib = compound: CC[C@@H]1C(=O)N(C)c2cnc(Nc3ccc(C(=O)N[C@H]4CC[C@H](N5CCN(CC6CC6)CC5)CC4)cc3OC)nc2N1C(C)C [volasertib]
In short: (§1)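 Thermal stability values are relative to control samples and come from duplicates. They are expressed as log2 fold changes. For measurement, K562 cells (2×10^6 cells/mL) received 10 μM compound for 30 min, and aliquots were heated for 3 min over 48°C-58°C, pooled, and extracted at 4°C in PBS with 0.5% NP-40. Soluble protein, the supernatant after 21,000xg for 90 min, was quantified by TMTpro 16plex LC-MS/MS with equalised channel sums.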

[1] = compound: CC[C@H](C)N1C=C(C2=C(C=C(C=C21)C3=CN=C(C=C3)N4CCNCC4)C(=O)NCC5=C(C=C(NC5=O)C)C)C
In short: as §1

epoxomicin = compound: CC[C@H](C)[C@@H](C(=O)N[C@@H]([C@@H](C)O)C(=O)N[C@@H](CC(C)C)C(=O)[C@]1(CO1)C)NC(=O)[C@H]([C@@H](C)CC)N(C)C(=O)C [epoxomicin]
In short: as §1

[2] = compound: CCn1cc(-c2ccnc3[nH]c(-c4cccc(CN(C)C)c4)cc23)c(-c2ccc(NC(=O)N(C)C)cc2)n1
In short: as §1

[3] = compound: CN(C)CC(=O)Nc1ccc2[nH]c(=O)c3ccccc3c2c1
In short: as §1

rosiglitazone = compound: CN(CCOC1=CC=C(C=C1)C[C@H]2C(=O)NC(=O)S2)C3=CC=CC=N3 (racemic) [rosiglitazone]
In short: as §1

[4] = compound: CN1CCC(CNc2ccc3ncc(-c4cccc(OC(F)(F)F)c4)n3n2)CC1
In short: as §1

sotrastaurin = compound: CN1CCN(c2nc(C3=C(c4c[nH]c5ccccc45)C(=O)NC3=O)c3ccccc3n2)CC1 [sotrastaurin]
In short: as §1

alvocidib = compound: CN1CC[C@H](c2c(O)cc(O)c3c(=O)cc(-c4ccccc4Cl)oc23)[C@H](O)C1 [alvocidib]
In short: as §1

Tubastatin A = compound: CN1CCc2c(c3ccccc3n2Cc2ccc(C(=O)NO)cc2)C1 [Tubastatin A]
In short: as §1

defactinib = compound: CNC(=O)c1ccc(Nc2ncc(C(F)(F)F)c(NCc3nccnc3N(C)S(C)(=O)=O)n2)cc1 [defactinib]
In short: as §1

[5] = compound: COC(=O)[C@H](CCSC)NC(=O)C1=C(C=C(C=C1)NC[C@H](CS)N)C2=CC=CC=C2
In short: as §1

[6] = compound: CCn1c(C(=O)N(C2CC2)C2CC2)cc2c3c(ncn3C)c(Nc3cc(C)n(C)n3)nc21
In short: as §1

[7] = compound: CNC(=O)C1=CC=CC=C1NC2=NC(=NC=C2Cl)NC3=C(C=C(C=C3)N4CCOCC4)OC
In short: as §1

[8] = compound: CN1C2=C(C3=C1C(=O)N(N=C3)CC4=CC(=CC=C4)N)SC(=C2)S(=O)C
In short: as §1

saracatinib = compound: CN1CCN(CCOc2cc(OC3CCOCC3)c3c(Nc4c(Cl)ccc5c4OCO5)ncnc3c2)CC1 [saracatinib]
In short: as §1

[9] = compound: CNc1nc(-c2ccc3c(N)n[nH]c3c2)cc(N2C[C@@H](C(=O)NC3CCCCC3)CC[C@H]2C)n1
In short: as §1

[10] = compound: CC[C@@H]1C(=O)N(C)c2cnc(Nc3ccc(C(=O)NC4CCN(C)CC4)cc3OC)nc2N1C1CCCC1
In short: as §1

rucaparib = compound: CNCc1ccc(-c2[nH]c3cc(F)cc4c3c2CCNC4=O)cc1 [rucaparib]
In short: as §1

encorafenib = compound: COC(=O)N[C@@H](C)CNc1nccc(-c2cn(C(C)C)nc2-c2cc(Cl)cc(NS(C)(=O)=O)c2F)n1 [encorafenib]
In short: as §1

Measured: log2 fold change

MNT (UniProt Q99583)
inactive: volasertib 0.091 | [1] -0.131 | epoxomicin 0.006 | [2] 0.029 | [3] -0.088 | rosiglitazone -0.076 | [4] -0.104 | sotrastaurin 0.085 | alvocidib 0.048 | Tubastatin A 0.13 | defactinib -0.095 | [5] 0.076

MINDY2 (UniProt Q8NBR6)
inactive: epoxomicin -0.012 | [6] -0.3 | alvocidib 0.034 | Tubastatin A 0.075 | [7] -0.047

MOB3B (UniProt Q86TA1)
inactive: [1] -0.045 | [2] -0.016 | [3] 0.034 | [4] -0.159 | Tubastatin A -0.03 | [7] -0.324 | defactinib -0.252 | [5] 0.078
active: volasertib -0.633

MPHOSPH8 isoform 2 (UniProt Q99549)
inactive: volasertib 0.012 | epoxomicin 0.16 | [3] -0.093 | [8] 0.058 | saracatinib 0.088 | sotrastaurin 0.018 | Tubastatin A 0 | defactinib 0.015 | [9] -0.064 | [5] 0.013

MOCS3 (UniProt O95396)
inactive: volasertib -0.103 | [1] -0.031 | epoxomicin 0.082 | [6] -0.022 | [2] -0.348 | [3] -0.031 | rosiglitazone -0.049 | [4] -0.351 | sotrastaurin 0.089 | alvocidib -0.1 | Tubastatin A 0.033 | [7] 0.068 | defactinib 0.127 | [5] 0.092

MKKS (UniProt Q9HB66)
inactive: [10] 0.061 | [1] -0.097 | epoxomicin 0.349 | [6] -0.017 | [2] 0.018 | [3] -0.003 | rosiglitazone -0.038 | [8] -0.088 | [4] 0.176 | saracatinib 0.018 | sotrastaurin 0.045 | alvocidib 0.099 | Tubastatin A -0.032 | [7] -0.024 | defactinib 0.016 | rucaparib 0.005 | [9] 0.058 | encorafenib -0.043 | [5] 0.003

MLXIP (UniProt Q9HAP2)
inactive: volasertib -0.345 | [1] 0.047 | epoxomicin 0.128 | [6] 0.017 | [2] -0.026 | [3] -0.019 | rosiglitazone 0.094 | [8] 0.053 | [4] -0.097 | saracatinib -0.116 | sotrastaurin -0.122 | alvocidib -0.141 | Tubastatin A 0.086 | [7] -0.021 | defactinib -0.262 | [9] 0.11 | [5] 0.122

Looked up one by one from the entries so far, 2 records:
MNT (UniProt Q99583)
inactive: volasertib 0.091 | [1] -0.131 | epoxomicin 0.006 | [2] 0.029 | [3] -0.088 | rosiglitazone -0.076 | [4] -0.104 | sotrastaurin 0.085 | alvocidib 0.048 | Tubastatin A 0.13 | defactinib -0.095 | [5] 0.076

MKKS (UniProt Q9HB66)
inactive: [10] 0.061 | [1] -0.097 | epoxomicin 0.349 | [6] -0.017 | [2] 0.018 | [3] -0.003 | rosiglitazone -0.038 | [8] -0.088 | [4] 0.176 | saracatinib 0.018 | sotrastaurin 0.045 | alvocidib 0.099 | Tubastatin A -0.032 | [7] -0.024 | defactinib 0.016 | rucaparib 0.005 | [9] 0.058 | encorafenib -0.043 | [5] 0.003

Continued.

MORC2 (UniProt Q9Y6X9)
inactive: epoxomicin 0.118 | [7] 0.124
active: volasertib -0.8

MIGA2 (UniProt Q7L4E1)
inactive: alvocidib -0.003

MR1 (UniProt Q95460)
inactive: epoxomicin 0.018 | [6] 0.004 | [7] -0.037

MIER2 (UniProt Q8N344)
inactive: epoxomicin 0.094 | [6] -0.056 | [3] -0.028 | [8] -0.075 | saracatinib 0.026 | alvocidib -0.319 | [7] 0.087 | defactinib -0.12 | [9] -0.309 | [5] 0.039

MOB3A (UniProt Q96BX8)
inactive: volasertib -0.317 | [1] 0.016 | [6] -0.033 | [2] 0.08 | [3] 0.12 | rosiglitazone 0.094 | [8] -0.029 | [4] -0.163 | saracatinib 0.155 | sotrastaurin -0.238 | alvocidib -0.137 | Tubastatin A 0.046 | [7] 0.052 | defactinib -0.06 | [9] -0.014 | [5] -0.104

MRPL52 (UniProt Q86TS9)
inactive: [10] 0.099 | [8] -0.308 | saracatinib -0.165 | sotrastaurin 0.061 | rucaparib 0.064 | [9] -0.104 | encorafenib 0.043

MRFAP1 (UniProt Q9Y605)
inactive: [10] -0.107 | volasertib -0.386 | [1] 0 | [2] 0.022 | [3] 0.242 | [8] -0.08 | [4] -0.032 | saracatinib -0.118 | sotrastaurin 0.102 | Tubastatin A 0.329 | [7] -0.003 | defactinib -0.051 | rucaparib -0.099 | [9] -0.002 | encorafenib 0.141 | [5] -0.027

MMAA (UniProt Q8IVH4)
inactive: volasertib 0.168 | epoxomicin 0.09 | [6] -0.088 | [8] 0.01 | saracatinib 0.039 | sotrastaurin 0.013 | alvocidib -0.04 | [7] -0.138 | [9] -0.019

MRAS (UniProt O14807)
inactive: [10] 0.289 | [1] -0.02 | [6] 0.014 | [2] -0.013 | rosiglitazone -0.029 | [4] -0.023 | [7] -0.131 | rucaparib -0.008 | encorafenib -0.014

MOCS2 (UniProt O96033)
inactive: [10] -0.015 | [6] 0.02 | [2] 0.012 | [8] -0.18 | [4] -0.028 | saracatinib 0.078 | sotrastaurin -0.006 | alvocidib 0.063 | Tubastatin A 0.189 | [7] -0.064 | rucaparib 0.009 | [9] -0.061 | encorafenib 0.02

MOB2 isoform 3 (UniProt Q70IA6)
inactive: volasertib -0.231 | [1] 0.207 | epoxomicin -0.193 | [2] -0.029 | [4] -0.103 | Tubastatin A -0.073 | [7] -0.123

MINDY4 (UniProt Q4G0A6)
inactive: sotrastaurin -0.038
